Experimental data: the supplement of paper PMC11546906
Structures can show the parent of a compound that is named as a salt. The list shows a part of the results. Repeats in this data set agree poorly, so a single value says little.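 Screen of FDA-approved drugs, each combined with colistin at one-eighth of its MIC, against a multidrug-resistant mcr-1-positive clinical E. coli isolate; growth read as OD600 after 24 h. Bacteria without drug were the growth control and plain broth the blank. A combination counted as active when OD600 fell below 0.2.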

system: Escherichia coli 42 (mcr-1-positive clinical isolate); test: OD600 after 24 h growth with compound plus colistin (absorbance units (OD600)); higher = more bacterial growth (less inhibition); settings: first compound 25 µM; colistin concentration 0.5 ug/mL; incubation time 24 h; 37 °C

Row | Compound | OD600
1 | Clc1ccc(CCC(Cn2ccnc2)Sc2c(Cl)cccc2Cl)cc1 (centres undefined) [Butoconazole nitrate] + CCC(C)CCCC(=O)N[C@@H](CCN)C(=O)N[C@H](C(=O)N[C@@H](CCN)C(=O)N[C@H]1CCNC(=O)[C@H]([C@@H](C)O)NC(=O)[C@H](CCN)NC(=O)[C@H](CCN)NC(=O)[C@H](CC(C)C)NC(=O)[C@@H](CC(C)C)NC(=O)[C@H](CCN)NC1=O)[C@@H](C)O [colistin] | active: 0.051
2 | CNCCC=C1c2ccccc2CCc2ccccc21 [Nortriptyline hydrochloride] + CCC(C)CCCC(=O)N[C@@H](CCN)C(=O)N[C@H](C(=O)N[C@@H](CCN)C(=O)N[C@H]1CCNC(=O)[C@H]([C@@H](C)O)NC(=O)[C@H](CCN)NC(=O)[C@H](CCN)NC(=O)[C@H](CC(C)C)NC(=O)[C@@H](CC(C)C)NC(=O)[C@H](CCN)NC1=O)[C@@H](C)O [colistin] | inactive: 0.96
3 | CCN(CC)CC(=O)Nc1c(C)cccc1C [Lidocaine hydrochloride] + CCC(C)CCCC(=O)N[C@@H](CCN)C(=O)N[C@H](C(=O)N[C@@H](CCN)C(=O)N[C@H]1CCNC(=O)[C@H]([C@@H](C)O)NC(=O)[C@H](CCN)NC(=O)[C@H](CCN)NC(=O)[C@H](CC(C)C)NC(=O)[C@@H](CC(C)C)NC(=O)[C@H](CCN)NC1=O)[C@@H](C)O [colistin] | inactive: 1.03
4 | C[C@@H](O[C@H]1OCCN(Cc2n[nH]c(=O)[nH]2)[C@H]1c1ccc(F)cc1)c1cc(C(F)(F)F)cc(C(F)(F)F)c1 [Aprepitant] + CCC(C)CCCC(=O)N[C@@H](CCN)C(=O)N[C@H](C(=O)N[C@@H](CCN)C(=O)N[C@H]1CCNC(=O)[C@H]([C@@H](C)O)NC(=O)[C@H](CCN)NC(=O)[C@H](CCN)NC(=O)[C@H](CC(C)C)NC(=O)[C@@H](CC(C)C)NC(=O)[C@H](CCN)NC1=O)[C@@H](C)O [colistin] | inactive: 1.1
5 | CCN(CC)C(=O)/C(C#N)=C/c1cc(O)c(O)c([N+](=O)[O-])c1 [Entacapone] + CCC(C)CCCC(=O)N[C@@H](CCN)C(=O)N[C@H](C(=O)N[C@@H](CCN)C(=O)N[C@H]1CCNC(=O)[C@H]([C@@H](C)O)NC(=O)[C@H](CCN)NC(=O)[C@H](CCN)NC(=O)[C@H](CC(C)C)NC(=O)[C@@H](CC(C)C)NC(=O)[C@H](CCN)NC1=O)[C@@H](C)O [colistin] | inactive: 1.22
6 | COC(=O)[C@@H]1[C@H]2C[C@H]3c4[nH]c5ccccc5c4CCN3C[C@@H]2CC[C@@H]1O [Yohimbine hydrochloride] + CCC(C)CCCC(=O)N[C@@H](CCN)C(=O)N[C@H](C(=O)N[C@@H](CCN)C(=O)N[C@H]1CCNC(=O)[C@H]([C@@H](C)O)NC(=O)[C@H](CCN)NC(=O)[C@H](CCN)NC(=O)[C@H](CC(C)C)NC(=O)[C@@H](CC(C)C)NC(=O)[C@H](CCN)NC1=O)[C@@H](C)O [colistin] | inactive: 1.03
7 | C[C@]12C=CC(=O)C=C1CC[C@@H]1[C@@H]2[C@@H](O)C[C@@]2(C)[C@H]1CC[C@]2(O)C(=O)CO [Prednisolone] + CCC(C)CCCC(=O)N[C@@H](CCN)C(=O)N[C@H](C(=O)N[C@@H](CCN)C(=O)N[C@H]1CCNC(=O)[C@H]([C@@H](C)O)NC(=O)[C@H](CCN)NC(=O)[C@H](CCN)NC(=O)[C@H](CC(C)C)NC(=O)[C@@H](CC(C)C)NC(=O)[C@H](CCN)NC1=O)[C@@H](C)O [colistin] | inactive: 0.96
8 | Cc1ncc([N+](=O)[O-])n1CC(C)O (centres undefined) [Secnidazole] + CCC(C)CCCC(=O)N[C@@H](CCN)C(=O)N[C@H](C(=O)N[C@@H](CCN)C(=O)N[C@H]1CCNC(=O)[C@H]([C@@H](C)O)NC(=O)[C@H](CCN)NC(=O)[C@H](CCN)NC(=O)[C@H](CC(C)C)NC(=O)[C@@H](CC(C)C)NC(=O)[C@H](CCN)NC1=O)[C@@H](C)O [colistin] | inactive: 0.989
9 | Cn1cnc2c(F)c(Nc3ccc(Br)cc3Cl)c(C(=O)NOCCO)cc21 [Selumetinib] + CCC(C)CCCC(=O)N[C@@H](CCN)C(=O)N[C@H](C(=O)N[C@@H](CCN)C(=O)N[C@H]1CCNC(=O)[C@H]([C@@H](C)O)NC(=O)[C@H](CCN)NC(=O)[C@H](CCN)NC(=O)[C@H](CC(C)C)NC(=O)[C@@H](CC(C)C)NC(=O)[C@H](CCN)NC1=O)[C@@H](C)O [colistin] | inactive: 0.782
